According to PubChem BioAssay AID1439 (NMMLSC, 2008):
Among all 220,000 compounds or so, about 770 (0.35%) were called active. Inconclusive results, whose numbers are uncertain, are shown with a selection of clear calls. Cut-off read from the data, not from the text of the source: active = binding response below about 49% or above about 150%; inconclusive = no clear call, values can overlap the other calls; inactive = in between.

Protein sequences, listed by entry. Tags and fused reporters are not part of them.
UniProt P09471, whole entry, looked up: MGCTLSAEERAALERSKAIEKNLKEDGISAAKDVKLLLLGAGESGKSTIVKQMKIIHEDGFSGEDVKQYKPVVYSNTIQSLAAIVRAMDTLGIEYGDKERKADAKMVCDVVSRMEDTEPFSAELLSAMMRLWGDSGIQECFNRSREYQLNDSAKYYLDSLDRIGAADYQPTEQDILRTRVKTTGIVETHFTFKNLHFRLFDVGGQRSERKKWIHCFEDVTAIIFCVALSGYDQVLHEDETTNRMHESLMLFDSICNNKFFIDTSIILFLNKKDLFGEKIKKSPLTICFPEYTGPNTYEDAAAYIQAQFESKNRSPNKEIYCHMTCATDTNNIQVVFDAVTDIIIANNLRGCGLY

Target: Guanine nucleotide-binding protein G(o) subunit alpha (Homo sapiens) (UniProt P09471)
Assay: RGS7-Galphao binding modulators, primary screen, biochemical, multiplexed bead flow cytometry (AID 1439);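 note: fluorescent Galphao held in activated GDP-AlF4 state binding bead-coupled RGS7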
Details: at 10 µM, actives lie on both sides

| SMILES | binding response (% of control) |
| --- | --- |
| CCCCSc1nc(C(=O)O)cc(=O)[nH]1 | inconclusive: 106% |
| CC(C)N(Cc1nc(-c2ccccc2)no1)C(=O)C(Cl)(Cl)Cl | inconclusive: 111% |
| Cc1ccc(CNC(=O)C2CCCN(c3nn4c(=O)cc(C)nc4s3)C2)cc1 (stereo unspecified) | inconclusive: 93.2% |
| O=C(Nc1ccc(N2CCN(C(=O)c3ccc(Cl)cc3)CC2)cc1)c1ccc([N+](=O)[O-])o1 | inconclusive: 107% |
| COc1nc(N2CCOCC2)nc(C)c1[N+](=O)[O-] | inactive: 87.8% |
| COc1cc(/C=C/CO)cc(OC)c1OC/C=C(\C)CCC=C(C)C | inconclusive: 186% |
| O=C(O)c1cc(O)ccc1N=Nc1ccccc1 | inconclusive: 116% |
| O=C(CN1CCN(S(=O)(=O)c2ccccc2F)CC1)Nc1ccccc1C(=O)c1ccccc1 | inactive: 103% |
| CCCc1nc2sc3ccccc3c(=O)c2c(=O)n1Cc1ccc(OC)cc1 | inconclusive: 110% |
| CC(C)C(=O)c1ccc(O)c(O)c1 | inconclusive: 103% |
| CCCn1c(SCC(=O)NCc2ccccc2)n[nH]c1=O | inactive: 93.6% |
| CC(C)(/C=N/O)N(O)C=C1C=CC(=O)C=C1 | inconclusive: 105% |
| COC(=O)c1ccc(N=CC2=C(O)CC(c3ccccc3)CC2=O)cc1 (stereo unspecified) | inconclusive: 112% |
| COc1cc(Cl)ccc1NC(=O)COc1ccccc1C(=O)NN | inconclusive: 81.8% |
| Cc1cc(/C(N)=N/OC(=O)c2ccc(Cl)cc2)no1 | inconclusive: 145% |
| Cn1c(=O)c2c(nc(N3CCc4ccccc4C3)n2Cc2ccccc2F)n(C)c1=O | inactive: 100% |
| O=C(O)CSc1ncnc2scc(-c3ccc(Br)cc3)c12 | inconclusive: 81.1% |
| Oc1ccccc1-c1nc2c3ccccc3c3ccccc3c2[nH]1 | inconclusive: 62.2% |
| COc1cc(CN2CCC(CO)(Cc3cccc(C(F)(F)F)c3)CC2)ccc1F | inconclusive: 137% |
| COc1ccc2oc(=O)c(C(=O)N3CCCC3)cc2c1 | inactive: 101% |
| CC(=O)Nc1ccc(SC[C@H](CC(C)C)N2CCN(CC(C)C)CCC2=O)cc1 | inconclusive: 98.8% |

An excerpt of these results, with tabs:
SMILES	binding response (% of control)
CCCc1nc2sc3ccccc3c(=O)c2c(=O)n1Cc1ccc(OC)cc1	inconclusive: 110%
CC(C)C(=O)c1ccc(O)c(O)c1	inconclusive: 103%
CCCn1c(SCC(=O)NCc2ccccc2)n[nH]c1=O	inactive: 93.6%
CC(C)(/C=N/O)N(O)C=C1C=CC(=O)C=C1	inconclusive: 105%

Next part

| SMILES | binding response (% of control) |
| --- | --- |
| O=C(c1ccc(F)cc1Cl)N(c1ccccn1)C1CCCCC1 | inconclusive: 70.5% |
| Cn1cccc1/C=N/NC(=O)Cc1cccs1 | inconclusive: 78% |
| CC(=O)c1cccc(NC(=O)N2CCCC2C(=O)Nc2ccc3c(c2)OCO3)c1 (stereo unspecified) | inactive: 98.6% |
| CCOc1cc(N2CCOCC2)c(OCC)cc1NC(=O)C(C)(C)C | inconclusive: 92.7% |
| CCN(CC)CCNC(=O)C(=O)Nc1ccc(C(=O)OC)cc1 | inconclusive: 93.3% |
| O=C(COc1ccc2ccc(=O)oc2c1)OCc1ccccc1 | inconclusive: 89.4% |
| Cc1ccc(C(=O)n2nc(C#N)c(C#N)c2N)cc1 | inconclusive: 84.4% |
| O=C(OCc1cncs1)c1ccccc1 | inactive: 95.8% |
| CN(C(=O)COC(=O)c1ccc([N+](=O)[O-])cc1N)c1ccccc1 | inactive: 105% |
| CCN1CCN(CCCN(Cc2cccs2)C(=S)Nc2ccccc2C)CC1 | inconclusive: 97.2% |
| COc1ccc(Cl)cc1NC(=O)C1COc2ccccc2O1 (stereo unspecified) | inactive: 103% |
| COc1ccc(C(=O)OCCN2CCOCC2)cc1 | inactive: 114% |
| Oc1ccc(/C=N/NC(=S)NCCN2CCOCC2)c(O)c1 | inconclusive: 115% |
| COc1ccccc1/C=C/C=N/n1c(-c2ccco2)n[nH]c1=S | inconclusive: 142% |
| Cc1cc(N2CCCC2)nc2ccc(NC(=S)NCCCN3CCC(C)CC3)cc12 | inactive: 103% |
| COc1ccc(C(=O)CN2C(=O)c3ccccc3C2=O)cc1 | inconclusive: -195% |
| O=C(CSCCS(=O)(=O)c1ccc(Cl)cc1)Nc1ccccc1 | inconclusive: 114% |
| Cc1c(Cl)cccc1N(Cc1ccc(C(=O)O)cc1)S(=O)(=O)c1ccccc1 | inactive: 99.7% |
| CC(C)NCC(O)c1cc(O)cc(O)c1 (stereo unspecified) | inconclusive: 64.2% |
| CCC(CC)NC(=O)c1cccc([N+](=O)[O-])c1C | inactive: 113% |
| CC(C)CCC(CC(C)O)C(=O)NNC(=S)Nc1ccccc1 (stereo unspecified) | inconclusive: 104% |

| SMILES | binding response (% of control) |
| --- | --- |
| O=C(COC(=O)CCC(=O)c1cccs1)NC(=O)c1ccc(OC(F)F)cc1 | inconclusive: 113% |
| COc1cc2c(cc1OC)-c1cc(N3CCc4ccccc43)nc(=O)n1CC2 | inconclusive: 210% |
| CC(C)(C)C(=O)Nc1ccc(C(=O)NNC(=O)c2ccccc2)cc1 | inconclusive: 114% |
| Cc1cc(C(=O)NNC(=S)Nc2ccccc2)nn1C | inactive: 105% |
| Cc1ccc(N(CC(=O)NC2CCCC2)C(=O)c2ccc(C)s2)cc1 | inconclusive: 97.6% |
| COc1ccc(CCN2C(=O)C3C4CC(C5C(C(=O)O)=NOC45)C3C2=O)cc1OC (stereo unspecified) | inactive: 105% |
| Cc1cc(Nc2nn(C)c(N)c2C#N)ccc1F | inactive: 102% |
| COC(=O)c1[nH]c2ccccc2c1NC(=O)c1c(F)cccc1F | inconclusive: 162% |
| CCCc1cc(NCc2ccccn2)n2nc(C)c(-c3ccccc3)c2n1 | inconclusive: 82.2% |
| S=C1NCCNC(=S)NCCOCCOCCN1 | inactive: 104% |
| COc1ccc(C2C(C(=O)Nc3ccc(OC)c(OC)c3)c3ccccc3C(=O)N2C)cc1 (stereo unspecified) | inconclusive: 82.9% |
| C/C=C(/C)C(=O)O[C@@H]1c2cc(OC)c(OC)c(OC)c2-c2c(cc3c(c2OC)OCO3)C[C@H](C)[C@]1(C)O | inconclusive: 85.8% |
| O=C(CSc1nnc2ccccn12)NCCc1ccc(Cl)cc1 | inconclusive: 107% |
| Cc1cc(=O)[nH]c(NCc2ccccc2)n1 | inconclusive: 35.7% |
| O=C(CCSc1nnc(-c2ccc(O)cc2)o1)N1CCOCC1 | inconclusive: 110% |
| O=C(Nc1ccc(F)cc1)c1ccc2nsnc2c1 | inconclusive: 111% |
| Cc1ccccc1COCCN1CCN(S(=O)(=O)c2ccccc2)CCC1=O | inconclusive: 102% |
| O=C(COC(=O)c1ccc(S(=O)(=O)Nc2ccccc2)cc1)NCC1CCCO1 (stereo unspecified) | inconclusive: 108% |
| COc1ccc(N(CC(=O)Nc2ccccc2C(N)=O)S(=O)(=O)c2ccc(C)c([N+](=O)[O-])c2)cc1 | inactive: 109% |
